Test results published in ChEMBL document CHEMBL4665629, “An optimised series of substituted N-phenylpyrrolamides as DNA gyrase B inhibitors” (Eur J Med Chem, 2019).
Converted amounts (≈) assume the structure as drawn.

System: Pseudomonas aeruginosa
Test: microbe, parasite or virus in culture
Conditions: ATCC 27853

**Q.** Which MIC does the source give for O=C(O)c1cn(C2CC2)c2cc(N3CCNCC3)c(F)cc2c1=O [CIPROFLOXACIN] here?
**A.** Its MIC is 1.81 µM (≈ 0.6 µg/mL).
